Data reported in PubChem BioAssay AID504834 (National Center for Advancing Translational Sciences (NCATS), 2011).
About 22,000 (6.9%) of roughly 320,000 compounds were called active. Inconclusive results, whose numbers are uncertain, are shown with a selection of clear calls. Calls follow the shape of the dose curve; as a rule, active = well fitted inhibition curve with a large enough effect; inconclusive = small, poorly fitted or top-dose-only effect, or another doubt; inactive = no such curve, though single readings can be large or run the other way. A potency beside an inconclusive call is a rough fit, not a confirmed value.

assay: Primary qHTS for delayed death inhibitors of the malarial parasite plastid, 96 hour incubation; settings: P. falciparum luciferase reporter growth; series mostly up to 28.7 µM; activity change, negative = inhibition: at the top concentration
Procedure, shortened: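 Compounds incubated with erythrocytes infected by luciferase-expressing P. falciparum (2% hematocrit, 0.05% parasitemia final) for 96 hours, 37 C in 5% CO2. Growth inhibition scored as decreased luciferase luminescence.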
% is scaled to controls: 0 for no effect and ±100 for the full control effect; potency is read from the fitted curve at half-maximal effect.

SMILES	Potency	activity change, negative = inhibition
CC(Oc1ccc(F)cc1)c1ccnc2nc(/N=C/N(C)C)nn12 (stereo unspecified)	inconclusive: 0.465 µM [inhibitor, partial curve, poor fit]	–
CC(C)n1cc(CNC(=O)C2CCC(=O)N(Cc3ccccc3F)C2)cn1 (stereo unspecified)	–	inactive: -19.4%
CN(C)c1ccc(NC(=O)c2sc(SCC(=O)Nc3ccc(Br)cc3)nc2N)cc1	–	inactive: 128%
O=C(CC1C(=O)NCCN1C(=S)Nc1ccccc1)Nc1ccc(F)cc1 (stereo unspecified)	–	inactive: -103%
CCO[C@@H]1OC(C(=O)N2CCN(Cc3ccccc3)CC2)=C[C@H](c2ccc(Br)cc2)[C@H]1CCCO	active: 13.1 µM	–
CCOc1cc2c(cc1OCC)C(C(=O)O)C(c1cc(Br)c(O)c(OC)c1)N(C)C2=O (stereo unspecified)	inconclusive: 14.7 µM [inhibitor, single point]	–
CN(C(=O)c1ccc(NC(=O)Cc2cccc(NC(=O)C3CCCN(C(=O)C4CCC4)C3)c2)cc1)C1CCCC1 (stereo unspecified)	inconclusive: 0.208 µM [inhibitor, full curve, poor fit]	–
Cc1cccn2c(=O)c(/C=C(\C#N)C(=O)NCc3ccco3)c(N3CCCC(C)C3)nc12 (stereo unspecified)	inconclusive: 10.4 µM [inhibitor, single point]	–
COc1ccc(-n2cnc3sc(-c4ccccc4)cc3c2=O)cc1	–	inactive: -7.34%
CCc1noc(C)c1C(=O)Nc1nnc(C2CCCCC2)s1	–	inactive: 238%
COCc1cc(C)nc2sc(C(=O)NCCO)c(-n3cccc3)c12	inconclusive: 0.522 µM [inhibitor, full curve, poor fit]	–
CCCc1nnc(NC(=O)CS(=O)(=O)c2ccc(C)cc2)s1	inconclusive: 4.15 µM [inhibitor, partial curve, poor fit]	–
Cc1nc2ccc(S(=O)(=O)NCC(=O)NCCc3ccc(Cl)cc3)cc2s1	inconclusive: 13.1 µM [inhibitor, partial curve, poor fit]	–
Cn1nc(C(F)(F)F)c(C(=O)Nc2cccc(C(F)(F)F)c2)c1SCc1ccc(Cl)cc1	active: 2.62 µM	–
O=C1c2ccccc2C(Nc2ccccc2)N1c1cccnc1 (stereo unspecified)	inconclusive: 9.28 µM [inhibitor, partial curve, poor fit]	–
Cn1c(SCc2ccc(F)cc2Cl)nc2ccccc2c1=O	inconclusive: 18.5 µM [inhibitor, single point]	–
COc1ccc(S(=O)(=O)N2CCN(c3ccccn3)CC2)cc1[N+](=O)[O-]	inconclusive: 13.1 µM [inhibitor, single point]	–
C=CC(=O)NCC1OCCc2ccccc21 (stereo unspecified)	–	inactive: -13.9%
CC1=CC(C)C2C(=O)N(c3ccccc3)NC(=O)C2C1 (stereo unspecified)	–	inactive: -17.7%
CCOC(=O)c1ccc(N2C=C(C(=O)OC)C(c3ccc(OC)c(O)c3)C(C(=O)OC)=C2)cc1	–	inactive: -27.8%
Clc1ccc(CCNc2ncnc3nc[nH]c23)cc1	inconclusive: 10.4 µM [inhibitor, partial curve, poor fit]	–
CC1Oc2ccccc2N(Cc2ccccc2F)C1=O (stereo unspecified)	inconclusive: 11.7 µM [inhibitor, partial curve, poor fit]	–
Cc1sc(NC(=O)C2CSC3(C)CCC(=O)N23)nc1-c1ccccc1 (stereo unspecified)	inconclusive: 13.1 µM [inhibitor, single point]	–

Shown as a markdown table: 2 of the compounds above

| SMILES | Potency | activity change, negative = inhibition |
| --- | --- | --- |
| CCO[C@@H]1OC(C(=O)N2CCN(Cc3ccccc3)CC2)=C[C@H](c2ccc(Br)cc2)[C@H]1CCCO | active: 13.1 µM | – |
| CCOC(=O)c1ccc(N2C=C(C(=O)OC)C(c3ccc(OC)c(O)c3)C(C(=O)OC)=C2)cc1 | – | inactive: -27.8% |

(listing goes on)

SMILES	Potency	activity change, negative = inhibition
COc1ccc(-n2c(=O)c3ccccc3n(CC(=O)NC3CCCCC3)c2=O)cc1	inconclusive: 16.5 µM [inhibitor, single point]	–
O=C(CSc1ccccc1)Nc1ccc(N2CCOCC2)cc1	inconclusive: 18.5 µM [inhibitor, single point]	–
COc1cc(C(=O)N/N=C2\CCS(=O)(=O)c3ccc(F)cc32)cc(OC)c1OC	–	inactive: -3.7%
S=C(Nc1ccccc1Cl)NC1CC2CCCC(C1)N2C1CC1 (stereo unspecified)	inconclusive: 11.7 µM [inhibitor, partial curve, poor fit]	–
COc1ccc(OC)c(N(CC(=O)NC2CCCC2)S(=O)(=O)c2ccc(OC)c(OC)c2)c1	active: 5.86 µM	–
O=C(NCCc1ccccc1Cl)C1CCC(=O)N(CC2CCCCC2)C1 (stereo unspecified)	active: 13.1 µM	–
CCC(C(=O)N1CCN(S(=O)(=O)c2sc(C(=O)O)c(C)c2C(=O)O)CC1)c1ccccc1 (stereo unspecified)	–	inactive: -12.6%
COc1ccc(NC(=O)CN2C(=O)CC(C)(C)S(=O)(=O)c3ccccc32)cc1	–	inactive: -6.33%
Cn1nc(C(=O)N2CCc3ccccc32)c2ccccc2c1=O	inconclusive: 5.86 µM [inhibitor, partial curve, poor fit]	–
COc1ccc(NC(=O)c2cnn(-c3ccccc3)c2C)cc1	–	inactive: 225%
Cc1ccc(OC(=O)C2c3ccccc3Oc3ccccc32)cc1C	active: 5.22 µM	–
COc1ccc(C2CC(c3ccc(Cl)cc3)=NN2C(=O)c2cccc([N+](=O)[O-])c2)cc1 (stereo unspecified)	inconclusive: 4.15 µM [inhibitor, single point]	–
Cc1cc(C)nc(SCC(=O)c2ccc(F)c(C)c2)n1	–	inactive: -10.7%
CC(C)NC(=O)c1cc2c(C(F)(F)F)nn(C)c2s1	inconclusive: 0.0928 µM [inhibitor, full curve, poor fit]	–
O=C(O)c1ccccc1-c1cn2cc(Cl)ccc2n1	–	inactive: 229%
CCC(C)Sc1ccc([C@H]2N[C@@](Cc3ccccc3)(C(=O)OC)[C@H]3C(=O)N(CC)C(=O)[C@@H]23)cc1OC (stereo partly specified)	inconclusive: 0.828 µM [inhibitor, full curve]	–
CCOC(=O)N1CCN(C(=O)CCl)CC1	inconclusive: 18.5 µM [inhibitor, single point]	–
O=C(NCc1ccc(Cl)cc1)c1ccccc1Oc1ccccc1	inconclusive: 18.5 µM [inhibitor, single point]	–
C=CCn1c(=O)c2c(nc(Br)n2Cc2ccccc2Cl)n(C)c1=O	active: 11.7 µM	–
COC(=O)/C(=N/Nc1ccccc1)N1CCCc2ccccc21	active: 10.4 µM	–
CCOP(=O)(OCC)C(NC(=O)c1ccccc1C)C(Cl)(Cl)Cl (stereo unspecified)	–	inactive: -17.1%
O=C(Cc1cccs1)Nc1nnc(Cc2ccc(F)cc2)s1	inconclusive: 1.04 µM [inhibitor, full curve]	–
Cc1ccc(NC(=O)C2CCCN(S(=O)(=O)c3cccnc3)C2)cc1C (stereo unspecified)	inconclusive: 10.4 µM [inhibitor, partial curve]	–
